# Results are given in words; binding and its absence hold for the method and conditions named. Binding seen in cells or lysates may run through a third protein. Some results given as binding are weak or reduced against the parent protein; the word gives no strength.
# Chains of the proteins cited; added tags and fusions are not shown.
# UniProt F1LP64: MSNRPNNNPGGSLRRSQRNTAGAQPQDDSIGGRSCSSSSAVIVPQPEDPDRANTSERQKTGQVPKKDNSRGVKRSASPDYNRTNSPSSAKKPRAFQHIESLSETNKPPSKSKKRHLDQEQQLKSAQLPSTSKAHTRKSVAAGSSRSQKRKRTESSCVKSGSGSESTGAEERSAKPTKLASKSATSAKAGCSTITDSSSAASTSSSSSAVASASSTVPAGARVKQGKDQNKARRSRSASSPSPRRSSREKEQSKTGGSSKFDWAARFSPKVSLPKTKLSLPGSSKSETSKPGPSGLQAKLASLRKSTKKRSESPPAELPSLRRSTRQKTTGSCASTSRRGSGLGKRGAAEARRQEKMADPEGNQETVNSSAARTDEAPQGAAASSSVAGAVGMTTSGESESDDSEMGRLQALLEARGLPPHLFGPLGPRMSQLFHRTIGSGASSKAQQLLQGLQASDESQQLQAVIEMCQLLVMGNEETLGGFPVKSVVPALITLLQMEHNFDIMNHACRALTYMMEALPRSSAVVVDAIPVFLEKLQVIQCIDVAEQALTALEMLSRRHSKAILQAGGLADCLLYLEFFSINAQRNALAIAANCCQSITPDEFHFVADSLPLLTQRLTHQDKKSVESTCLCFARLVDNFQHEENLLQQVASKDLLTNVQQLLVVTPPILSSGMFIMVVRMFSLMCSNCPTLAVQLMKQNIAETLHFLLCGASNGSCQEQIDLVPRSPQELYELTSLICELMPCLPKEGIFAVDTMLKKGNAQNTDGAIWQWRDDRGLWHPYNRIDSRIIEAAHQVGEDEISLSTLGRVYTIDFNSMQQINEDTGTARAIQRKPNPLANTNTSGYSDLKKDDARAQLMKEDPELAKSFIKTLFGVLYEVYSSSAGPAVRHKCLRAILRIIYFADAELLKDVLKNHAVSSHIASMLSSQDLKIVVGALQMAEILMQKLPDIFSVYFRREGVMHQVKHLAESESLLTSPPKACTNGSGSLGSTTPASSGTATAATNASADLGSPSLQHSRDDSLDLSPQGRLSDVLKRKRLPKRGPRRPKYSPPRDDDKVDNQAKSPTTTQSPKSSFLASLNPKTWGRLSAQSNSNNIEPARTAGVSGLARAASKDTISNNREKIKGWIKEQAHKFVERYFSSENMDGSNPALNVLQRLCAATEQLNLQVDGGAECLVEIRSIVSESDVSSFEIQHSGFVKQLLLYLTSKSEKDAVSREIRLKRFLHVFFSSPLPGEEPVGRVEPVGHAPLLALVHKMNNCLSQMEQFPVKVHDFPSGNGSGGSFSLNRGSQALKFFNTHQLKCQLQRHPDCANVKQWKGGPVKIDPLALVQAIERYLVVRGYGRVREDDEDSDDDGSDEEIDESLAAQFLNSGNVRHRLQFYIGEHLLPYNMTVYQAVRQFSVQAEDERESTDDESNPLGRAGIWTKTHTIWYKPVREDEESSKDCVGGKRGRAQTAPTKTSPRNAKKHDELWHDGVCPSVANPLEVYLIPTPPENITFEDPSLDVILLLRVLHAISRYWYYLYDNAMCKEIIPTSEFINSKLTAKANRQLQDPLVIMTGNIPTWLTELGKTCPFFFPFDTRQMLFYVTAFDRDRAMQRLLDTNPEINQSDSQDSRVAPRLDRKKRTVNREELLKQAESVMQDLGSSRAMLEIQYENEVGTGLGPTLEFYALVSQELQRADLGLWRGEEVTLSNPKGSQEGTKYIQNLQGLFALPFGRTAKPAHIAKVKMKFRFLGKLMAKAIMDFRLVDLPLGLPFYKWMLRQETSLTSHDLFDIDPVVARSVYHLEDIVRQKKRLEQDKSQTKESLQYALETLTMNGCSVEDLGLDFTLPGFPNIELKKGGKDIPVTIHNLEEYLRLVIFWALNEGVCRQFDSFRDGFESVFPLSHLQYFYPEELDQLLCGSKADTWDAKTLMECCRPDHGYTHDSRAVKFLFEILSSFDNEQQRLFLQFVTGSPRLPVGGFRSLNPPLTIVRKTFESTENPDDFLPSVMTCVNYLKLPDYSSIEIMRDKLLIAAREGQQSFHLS
# Target: T1, Cyclin-dependent kinase 4 (rat (endogenous in primary ADSCs)) (UniProt P35426)
# T1 sequence: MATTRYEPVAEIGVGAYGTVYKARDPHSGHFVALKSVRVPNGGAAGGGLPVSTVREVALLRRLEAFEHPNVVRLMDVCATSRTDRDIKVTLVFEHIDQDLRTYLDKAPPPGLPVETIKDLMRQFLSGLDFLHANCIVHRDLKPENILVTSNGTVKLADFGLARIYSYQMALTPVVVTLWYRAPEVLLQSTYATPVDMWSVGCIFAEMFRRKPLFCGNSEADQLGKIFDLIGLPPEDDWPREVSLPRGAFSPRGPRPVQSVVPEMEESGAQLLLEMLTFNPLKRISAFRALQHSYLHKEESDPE
# Test: co-IP; anti-CDK4 antibody (Abcam, ab226474) with a commercial Co-IP kit (Thermo, 26149) on ADSC lysates, control or PA-treated (500 umol/l sodium palmitate, 12 h); precipitate read by WB
substance,measurement,value
E3 ubiquitin ligase TRIP12 (from UniProt F1LP64 1-2025) (enzyme),binding,binds
